Measured values reported in PubChem BioAssay AID540275 (National Center for Advancing Translational Sciences (NCATS), 2011).
Hit rate of the full screen: of about 320,000 compounds, about 620 (0.19%) were called active. The inconclusive results got no clear call from the source; some entries with a clear call stand among them for comparison. Rule as the data show it: active = activation above about 80%; inconclusive = between about 30% and that limit; inactive = weaker than that.

Sequences of proteins named here, by UniProt entry; tags and fusion partners are left off.
UniProt Q8NER1, whole entry, looked up: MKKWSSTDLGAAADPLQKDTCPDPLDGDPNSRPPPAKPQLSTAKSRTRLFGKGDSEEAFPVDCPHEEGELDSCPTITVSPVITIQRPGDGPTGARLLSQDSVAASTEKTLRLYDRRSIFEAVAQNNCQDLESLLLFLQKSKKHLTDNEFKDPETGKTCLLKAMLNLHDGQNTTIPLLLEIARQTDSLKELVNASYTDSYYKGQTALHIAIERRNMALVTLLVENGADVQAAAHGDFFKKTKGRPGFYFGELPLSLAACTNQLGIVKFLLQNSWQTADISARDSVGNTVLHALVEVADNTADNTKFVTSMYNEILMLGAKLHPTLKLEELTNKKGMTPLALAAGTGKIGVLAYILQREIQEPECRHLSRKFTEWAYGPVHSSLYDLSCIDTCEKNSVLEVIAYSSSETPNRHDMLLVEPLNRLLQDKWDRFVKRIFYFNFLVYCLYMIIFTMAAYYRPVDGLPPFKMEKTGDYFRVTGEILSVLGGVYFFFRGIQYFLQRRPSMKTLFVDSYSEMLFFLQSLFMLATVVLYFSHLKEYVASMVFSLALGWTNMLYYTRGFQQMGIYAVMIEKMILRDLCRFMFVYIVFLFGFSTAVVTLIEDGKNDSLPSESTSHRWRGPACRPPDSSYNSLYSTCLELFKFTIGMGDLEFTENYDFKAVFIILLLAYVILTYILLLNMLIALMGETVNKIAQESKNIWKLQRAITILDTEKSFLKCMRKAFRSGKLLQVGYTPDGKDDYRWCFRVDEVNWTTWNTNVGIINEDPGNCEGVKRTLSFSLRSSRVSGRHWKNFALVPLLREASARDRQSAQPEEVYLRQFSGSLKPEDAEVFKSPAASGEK

Target: Transient receptor potential cation channel subfamily V member 1 (Homo sapiens) (UniProt Q8NER1)
Assay: HTS Assay for Compounds that Act as Agonists of the Vanilloid Receptor 1; also: 0% is about no effect
Conditions: TRPV1-expressing cells, Fluo-8 calcium influx, agonist mode; at 8.33 µM, hits give high values
Procedure, shortened: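 Fluo-8 calcium influx in TRPV1-expressing cells, kinetic read (ex 480/em 520 nm). Compound added and read 3 min for agonist activity, followed by capsaicin at EC20 final and 2 min further read for enhancement.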

SMILES | activation
O=C(Nc1ccccc1Cl)N1CCCN(c2nc(-c3ccccc3)ns2)CC1 | inconclusive: 45.1%
COc1ccc([C@H]2[C@@H](C#N)[C@H](C#N)N3CCCN23)cc1 | inactive: -3.96%
CCCCn1nnnc1SCC(=O)c1cc(Cl)ccc1OC | inconclusive: 30.1%
CCCn1c(SCC(=O)NC)nc2sc3c(c2c1=O)CCC3 | inconclusive: 51%
CCOC(=O)C1CCN(S(=O)(=O)c2ccc(-n3cnnn3)c(C)c2)CC1 | inconclusive: 48.5%
O=C(Nc1ncc(Cc2ccc(SC(F)F)cc2)s1)c1ccccc1 | inconclusive: 49.8%
COc1ccc(C2c3cc(OC)c(OC)cc3CCN2S(C)(=O)=O)cc1OC (configuration not stated) | inactive: 1.56%
CCCCCCn1c(/C=C/c2ccccc2)nc2ccccc21 | inconclusive: 70%
O=C(NCCC1=CCCCC1)c1cnccn1 | inconclusive: 39.8%
CSc1nccc(N/N=C/c2ccccc2)n1 | inconclusive: 79.3%
c1ccc(Nc2ncnc3c2oc2ccccc23)cc1 | active: 81%
CCN(CC)c1cccc(OC2=NS(=O)(=O)c3ccccc32)c1 | inactive: -6.83%
Cc1ccc(NC(=O)N2CCc3ccccc32)cc1C | inconclusive: 55.2%
CCSc1nnc(NC(=O)c2cccc(OCc3c(C)noc3C)c2)s1 | inconclusive: 41.5%
O=C(O)C1C2CCC(O2)C1C(=O)Nc1ccc(Cl)cc1F (configuration not stated) | inactive: 1.93%
CCOc1ccc(-c2cnc3n2CCC3)cc1 | inconclusive: 44.3%
CC1CCCCC1NC(=O)/C=C/c1nc2ccccc2s1 (configuration not stated) | inconclusive: 40.2%
Cc1ccc(S(=O)(=O)N(CC(=O)NC2CCCCCC2)c2ccccc2F)cc1 | inconclusive: 51.8%
COc1cccc(-c2csc(N3CCN(C(=O)Nc4ccc(F)cc4)CC3)n2)c1 | inconclusive: 60.7%
Cc1ccc(C2CC(c3cccs3)=NN2C(=O)c2ccco2)o1 (configuration not stated) | inconclusive: 41%
CCn1c(=O)cc(SCC(=O)NCc2ccccn2)c2ccccc21 | inactive: -1.65%
CC(=O)Nc1cccc(NC(=O)COc2ccc3c(c2)CCC3)c1 | inconclusive: 62.4%
Cc1ccc(NC(=O)c2ccc3c(=O)n4c(nc3c2)CCCCC4)cc1F | inconclusive: 53.3%
S=C(NCC1CCCO1)N1CCN(c2cccc(Cl)c2)CC1 (configuration not stated) | inconclusive: 56.5%

Structural class: the compounds so far containing a thiophene ring, fused or not
SMILES | activation
CCCn1c(SCC(=O)NC)nc2sc3c(c2c1=O)CCC3 | inconclusive: 51%
Cc1ccc(C2CC(c3cccs3)=NN2C(=O)c2ccco2)o1 (configuration not stated) | inconclusive: 41%

(continued)

SMILES | activation
CCOC(=O)C(=O)N(Nc1ccccc1C)c1ccccc1C | inconclusive: 31.5%
N#Cc1nc(-c2ccc(F)cc2)oc1NCc1cccc2c1OCO2 | inconclusive: 33.3%
O=C(NC1=NCCS1)c1ccccc1OCc1ccccc1Cl | inconclusive: 42%
CCCc1cc(C(=O)N/N=C/c2cccn2C)cs1 | inconclusive: 66.3%
O=C(COC(=O)C12CC3CC(CC(Br)(C3)C1)C2)Nc1ccc2[nH]c(=O)[nH]c2c1 | inconclusive: 63.6%
Cc1ccccc1OCC(=O)Nc1sc(C(=O)Nc2cccc(C)c2C)c(C)c1C#N | inactive: -13.1%
O=C1CSC(=S)N1/N=C/c1ccc(C(F)(F)F)cc1 | inactive: -1.85%
COc1ccc(CN(C)C(C)C(=O)NC2CCCc3ccccc32)cc1 (configuration not stated) | inconclusive: 30.9%
COc1ccc(C2=CC(=O)C[C@H](c3ccc(F)cc3)C2)cc1F | inconclusive: 36.8%
CC(Oc1ccc(Cl)cc1Cl)C(=O)Nc1ccc(S(=O)(=O)Nc2cnc3ccccc3n2)cc1 (configuration not stated) | inactive: 0.579%
CCCn1c(=N)n(CC(=O)c2ccc([N+](=O)[O-])cc2)c2ccccc21 | inactive: -4.66%
N#Cc1ccc(OCC(=O)NCC2(N3CCCCC3)CCCCC2)cc1 | inactive: -0.887%
Cn1ccs/c1=N\C(=O)Nc1cccc(C(F)(F)F)c1 | inconclusive: 59.4%
CCOc1ccc2ccccc2c1C(=O)NCC(c1ccc(N(C)C)cc1)N(C)C (configuration not stated) | inactive: 6.81%
N/C(COc1cccc(C(F)(F)F)c1)=N\NC(=O)c1cccnc1Oc1ccccc1 | inactive: -1.02%
Clc1ccc(OCCn2cnc3ccccc32)c(Cl)c1 | inconclusive: 42.1%
Cc1ccccc1CSCCNC(=O)Nc1ccccc1 | inconclusive: 65.2%
Cc1ccc(/C=C/C(=O)c2ccc([N+](=O)[O-])o2)cc1 | inconclusive: 45%
N/C(=N\OC(=O)c1cc(Cl)ccc1Cl)c1cccnc1 | inactive: -4.02%
CCc1c(C)nc2c(-c3ccccc3)c[nH]n2c1=O | inactive: 2.06%
COc1ccc(NC(=O)CCCN2C(=O)C(c3ccccc3)Oc3cccnc32)cc1OC (configuration not stated) | inconclusive: 75.7%
COc1ccc(C(=O)OCc2csc(C)n2)c(O)c1 | inconclusive: 47.3%
COc1ccccc1CNC(=O)CCSCc1cccc(Cl)c1 | inconclusive: 39.4%
